## Screening data, single-dose tests

Measurements from “University of Dundee, Small-Polar-MMV Screening Library” (2021), ChEMBL document CHEMBL3988442.

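Assay of Toxoplasma gondii numbers, read through their beta-galactosidase reporter with a colour substrate. Tested at 50 µM. The record gives no direction; the compounds picked for IC50 retests had high values, so higher reads as fewer parasites. Of about 18,000 compounds tested this way, about 170 (0.94%) reached 50% or more in at least one test.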

Each number is a percent effect as filed.
The record does not define 0% and 100%; most values in the screen are far below 50% and negative numbers occur (in some assays of this library far below -100).
The compounds are a random part of those screened.

| # | structure | percent effect |
|---|---|---|
| 1 | `O=C1CCCN1C1CCC(O)CC1` (centres undefined) | -2.314 |
| 2 | `CC(C)Cn1c(=O)[nH]c(=O)c2c1nc1n2CCC1` | 14.09 |
| 3 | `NC(=O)CCN1CCCC1` | 2.147 |
| 4 | `O=C(C1CCCO1)N1CCN(c2cc(Br)ccn2)CC1` (centres undefined) | 11.04 |
| 5 | `Cc1n[nH]c(C)c1C(NC(N)=O)c1ccccc1` (centres undefined) | 2.289 |
| 6 | `CNCC(=O)NC1CCS(=O)(=O)C1` (centres undefined) | -1.317 |
| 7 | `COc1ncccc1C(=O)N(C)C(C)c1ccccn1` (centres undefined) | -1.474 |
| 8 | `Cc1n[nH]cc1CNc1cc2c(cc1F)NC(=O)CC2` | -6.374 |
| 9 | `COc1ccc(OCC(O)CN2CCN(C)CC2)cc1` (centres undefined) | 6.942 |
| 10 | `O=C(Cc1cccc(O)c1)N1CCc2cnccc21` | -5.142 |
| 11 | `c1cnc(N2CCCC2)c(NC2CCNCC2)c1` | 6.005 |
| 12 | `COCCN1CCC(CNC(=O)N2CCC(C)CC2)C1` (centres undefined) | 3.574 |
| 13 | `Cc1cc(C(=O)N2C[C@@H](CO)[C@H](N(C)C)C2)no1` | -5.626 |
| 14 | `Cc1cc(CC(C)NC(=O)CCn2nnnc2C)[nH]n1` (centres undefined) | -15.45 |
| 15 | `CN(CC(=O)N1CCCC1)C(=O)C1CCC1` | -1.682 |
| 16 | `CNC(=O)C(N)C(C)C` (centres undefined) | -28.14 |
| 17 | `CC(=O)c1c[nH]c(C(=O)NC2CCN(C(C)=O)CC2)c1` | 7.945 |
| 18 | `CS(=O)(=O)CCn1c(CCCO)nc2ccccc21` | -0.08364 |
| 19 | `COc1cc(OC)cc(N2CC(N)CC2=O)c1` (centres undefined) | 17.36 |
| 20 | `CN1CCN(C2CCN(C(=O)c3ccsc3)C2)CC1` (centres undefined) | -2.776 |
| 21 | `O=C(NCc1cccnc1)C1COc2ccccc2O1` (centres undefined) | -19.28 |
| 22 | `Cc1nn(C)c(C)c1CCC(=O)N1C[C@H]2CC[C@@H](C1)N2` | -11.29 |
| 23 | `CC(C)(C)C(=O)COc1ccccc1C(N)=O` | 5.818 |
| 24 | `Cc1ncsc1C(=O)N1CCN(C(=O)N(C)C)CC1` | 1.721 |
| 25 | `Cc1nn(C)cc1S(=O)(=O)Nc1ccccn1` | -37.29 |
| 26 | `COCC(=O)N1CCCN(C(=O)CN(C)C)CC1` | 3.591 |
| 27 | `CN1C(=O)C[C@H](CN)[C@H]1c1ccncc1` | -12.04 |
| 28 | `CSCC(CCO)Nc1ncccc1C(F)(F)F` (centres undefined) | -4.378 |
| 29 | `COc1cccc([S+]([O-])Cc2nnc(C)n2C)c1` (centres undefined) | -10.37 |
| 30 | `N#Cc1ccccc1CN1CCC2(CC1)[C@H](O)C[C@@H]2O` | -0.06656 |
| 31 | `CC(C)C1CN(C)CCN1Cc1ccncc1` (centres undefined) | -1.238 |
| 32 | `COCCOC1(CN)CCOCC1` | -5.541 |
| 33 | `COCC(=O)NC(C)c1ccc(OC(C)C)c(OC)c1` (centres undefined) | -7.426 |
| 34 | `CN1CN(Cc2ccc(Cl)o2)CC1=O` | 0.7354 |
| 35 | `COc1ccc(NC(C)CCn2cncn2)cn1` (centres undefined) | 26.97 |
| 36 | `Cc1ccc(C)c(-n2nnc(C(=O)NC(C)C)c2N)c1` | 11.31 |
| 37 | `Cc1cccnc1NC(=O)NC1CCS(=O)(=O)C1` (centres undefined) | -8.603 |
| 38 | `COc1ccc(CNC(=O)C2=COCCO2)cc1OC` | 14.31 |
| 39 | `C=C(C)CN1C(=O)Nc2ccccc2S1(=O)=O` | 1.732 |
| 40 | `CCCN1CCC(NCC(O)c2ccncc2)CC1` (centres undefined) | 4.73 |
| 41 | `CCNC(=O)CNc1nccc(OC)n1` | 5.07 |
| 42 | `NC(=O)C(c1ccc(Cl)cc1)N1CCNCC1` (centres undefined) | 0.4618 |
| 43 | `CN(CC(=O)N1CCOCC1)c1ccc(C#N)cn1` | 3.436 |
| 44 | `CCCn1ccnc1CNC(=O)c1nc(C)c[nH]1` | 7.594 |
| 45 | `CCNC(=O)C1(N)CCCC1` | -3.987 |
| 46 | `CCCn1nnnc1CN(C)C(C)(C)C(=O)OCC` | 0.1135 |
| 47 | `CCC1CN(C(=O)Cn2cc(C)c(=O)[nH]c2=O)CCN1` (centres undefined) | 2.885 |
| 48 | `CN(Cc1nnc[nH]1)S(=O)(=O)c1cc(F)cc(Cl)c1` | 1.963 |
| 49 | `Cn1ccnc1CN1CCN(C2=NCC(C)(C)S2)CC1` | 2.314 |
| 50 | `O=C(Nc1ccncc1)c1ccc2c(c1)CCO2` | -0.3188 |
| 51 | `Cn1ncnc1CCNC(=O)c1ccsc1` | -5.834 |
| 52 | `Cc1cc(CO)ccc1N1CCOCC1` | 9.422 |
| 53 | `Cc1cnc(N2CCCN(CCO)CC2)nc1C` | 9.036 |
| 54 | `O=C(CC1COCCN1)NCCCc1ccccc1F` (centres undefined) | -4.529 |
| 55 | `CC(C)OC(=O)CCN` | 10.6 |
| 56 | `Cc1cc(-c2nc(C3CCOC3)no2)n(C)n1` (centres undefined) | 49.34 |

Once more, the final 7:

* O=C(Nc1ccncc1)c1ccc2c(c1)CCO2 | -0.3188%
* Cn1ncnc1CCNC(=O)c1ccsc1 | -5.834%
* Cc1cc(CO)ccc1N1CCOCC1 | 9.422%
* Cc1cnc(N2CCCN(CCO)CC2)nc1C | 9.036%
* O=C(CC1COCCN1)NCCCc1ccccc1F (centres undefined) | -4.529%
* CC(C)OC(=O)CCN | 10.6%
* Cc1cc(-c2nc(C3CCOC3)no2)n(C)n1 (centres undefined) | 49.34%